Measurements taken from the supplement of paper PMC12595434, “Development of retinoid nuclear receptor pathway antagonists through targeting aldehyde dehydrogenase 1A3” (iScience, 2025).
The other results are listed elsewhere or left out. Single values of this set are uncertain.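 Tm was set to 64 °C where no melting was found, and many curves are irregular.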

Chains of the proteins cited; added tags and fusions are not shown. Lines headed by an entry give the natural chain unless they say otherwise; changes in a name come on top.
UniProt Q93008, whole entry: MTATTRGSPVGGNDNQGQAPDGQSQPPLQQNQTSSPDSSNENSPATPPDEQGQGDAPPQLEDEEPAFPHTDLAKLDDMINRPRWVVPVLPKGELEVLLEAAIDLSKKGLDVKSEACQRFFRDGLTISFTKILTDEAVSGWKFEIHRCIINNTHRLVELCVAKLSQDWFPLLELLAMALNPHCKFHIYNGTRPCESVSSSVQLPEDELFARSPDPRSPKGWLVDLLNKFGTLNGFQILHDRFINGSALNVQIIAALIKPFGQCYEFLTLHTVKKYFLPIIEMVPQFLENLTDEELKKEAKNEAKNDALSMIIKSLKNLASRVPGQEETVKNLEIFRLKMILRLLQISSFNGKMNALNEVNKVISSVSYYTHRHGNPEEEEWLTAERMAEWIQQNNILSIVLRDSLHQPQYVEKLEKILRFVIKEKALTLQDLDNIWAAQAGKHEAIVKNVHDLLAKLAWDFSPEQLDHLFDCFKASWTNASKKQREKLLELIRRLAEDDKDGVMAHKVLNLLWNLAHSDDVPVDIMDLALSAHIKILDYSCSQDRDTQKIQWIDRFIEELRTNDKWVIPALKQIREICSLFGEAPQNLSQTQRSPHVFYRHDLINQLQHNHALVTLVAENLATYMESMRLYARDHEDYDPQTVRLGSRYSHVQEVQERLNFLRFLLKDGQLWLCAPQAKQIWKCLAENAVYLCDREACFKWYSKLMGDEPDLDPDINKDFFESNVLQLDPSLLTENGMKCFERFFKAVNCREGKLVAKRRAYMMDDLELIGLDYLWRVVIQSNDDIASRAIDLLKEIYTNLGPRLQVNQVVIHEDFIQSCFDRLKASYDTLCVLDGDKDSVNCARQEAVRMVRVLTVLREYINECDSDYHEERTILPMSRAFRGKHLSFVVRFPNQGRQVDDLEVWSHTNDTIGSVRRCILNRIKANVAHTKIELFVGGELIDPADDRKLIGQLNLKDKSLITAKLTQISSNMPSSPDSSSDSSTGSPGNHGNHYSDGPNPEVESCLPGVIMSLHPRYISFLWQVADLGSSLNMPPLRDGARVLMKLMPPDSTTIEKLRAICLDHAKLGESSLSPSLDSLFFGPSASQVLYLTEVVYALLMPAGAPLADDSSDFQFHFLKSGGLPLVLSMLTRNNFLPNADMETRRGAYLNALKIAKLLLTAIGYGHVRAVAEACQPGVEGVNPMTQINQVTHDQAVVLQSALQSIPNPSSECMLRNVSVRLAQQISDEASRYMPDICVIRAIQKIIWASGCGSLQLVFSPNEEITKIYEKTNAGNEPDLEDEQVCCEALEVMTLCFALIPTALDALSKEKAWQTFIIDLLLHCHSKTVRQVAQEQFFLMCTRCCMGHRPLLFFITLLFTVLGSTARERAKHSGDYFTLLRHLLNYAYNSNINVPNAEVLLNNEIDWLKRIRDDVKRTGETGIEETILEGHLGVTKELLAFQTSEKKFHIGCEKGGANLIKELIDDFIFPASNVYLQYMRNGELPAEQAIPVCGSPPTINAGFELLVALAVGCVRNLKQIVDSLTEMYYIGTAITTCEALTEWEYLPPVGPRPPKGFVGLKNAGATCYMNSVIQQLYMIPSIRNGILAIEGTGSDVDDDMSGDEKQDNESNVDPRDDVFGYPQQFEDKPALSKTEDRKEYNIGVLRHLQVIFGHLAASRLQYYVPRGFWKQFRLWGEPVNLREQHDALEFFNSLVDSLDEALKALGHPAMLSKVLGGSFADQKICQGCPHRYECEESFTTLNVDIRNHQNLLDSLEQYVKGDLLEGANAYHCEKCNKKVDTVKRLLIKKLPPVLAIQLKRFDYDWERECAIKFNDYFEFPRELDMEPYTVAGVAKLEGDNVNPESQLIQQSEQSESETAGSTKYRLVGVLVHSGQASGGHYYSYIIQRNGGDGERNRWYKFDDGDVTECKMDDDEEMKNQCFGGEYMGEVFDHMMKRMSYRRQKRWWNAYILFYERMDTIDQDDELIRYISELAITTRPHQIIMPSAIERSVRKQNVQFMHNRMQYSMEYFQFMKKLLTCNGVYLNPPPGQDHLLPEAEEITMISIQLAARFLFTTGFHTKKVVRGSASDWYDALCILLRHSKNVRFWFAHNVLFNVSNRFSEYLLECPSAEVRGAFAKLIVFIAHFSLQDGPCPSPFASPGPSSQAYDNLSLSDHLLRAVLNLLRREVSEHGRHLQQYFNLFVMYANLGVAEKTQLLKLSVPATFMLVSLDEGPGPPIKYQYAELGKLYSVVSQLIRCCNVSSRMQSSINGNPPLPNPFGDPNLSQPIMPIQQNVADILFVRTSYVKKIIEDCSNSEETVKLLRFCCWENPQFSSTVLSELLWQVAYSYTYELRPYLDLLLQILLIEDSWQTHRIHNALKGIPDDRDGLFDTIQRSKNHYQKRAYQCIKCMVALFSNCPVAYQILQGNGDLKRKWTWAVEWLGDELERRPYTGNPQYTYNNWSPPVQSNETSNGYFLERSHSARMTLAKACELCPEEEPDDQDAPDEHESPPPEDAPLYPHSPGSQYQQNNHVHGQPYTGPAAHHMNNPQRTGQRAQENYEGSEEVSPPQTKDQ
UniProt Q96DP5: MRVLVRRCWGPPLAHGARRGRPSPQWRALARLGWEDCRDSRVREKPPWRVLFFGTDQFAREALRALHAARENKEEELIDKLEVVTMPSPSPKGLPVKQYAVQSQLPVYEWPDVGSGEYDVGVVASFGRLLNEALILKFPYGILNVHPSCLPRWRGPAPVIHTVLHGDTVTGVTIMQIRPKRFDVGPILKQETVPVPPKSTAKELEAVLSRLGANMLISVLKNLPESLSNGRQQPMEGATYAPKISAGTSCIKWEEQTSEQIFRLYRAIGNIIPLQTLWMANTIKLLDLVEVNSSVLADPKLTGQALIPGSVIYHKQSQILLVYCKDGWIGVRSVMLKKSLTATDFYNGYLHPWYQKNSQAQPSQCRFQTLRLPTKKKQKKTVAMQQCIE
UniProt Q96D05: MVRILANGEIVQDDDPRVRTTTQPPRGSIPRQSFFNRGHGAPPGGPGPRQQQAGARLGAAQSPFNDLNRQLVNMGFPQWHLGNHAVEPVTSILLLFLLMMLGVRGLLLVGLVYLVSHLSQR
UniProt Q96AD5: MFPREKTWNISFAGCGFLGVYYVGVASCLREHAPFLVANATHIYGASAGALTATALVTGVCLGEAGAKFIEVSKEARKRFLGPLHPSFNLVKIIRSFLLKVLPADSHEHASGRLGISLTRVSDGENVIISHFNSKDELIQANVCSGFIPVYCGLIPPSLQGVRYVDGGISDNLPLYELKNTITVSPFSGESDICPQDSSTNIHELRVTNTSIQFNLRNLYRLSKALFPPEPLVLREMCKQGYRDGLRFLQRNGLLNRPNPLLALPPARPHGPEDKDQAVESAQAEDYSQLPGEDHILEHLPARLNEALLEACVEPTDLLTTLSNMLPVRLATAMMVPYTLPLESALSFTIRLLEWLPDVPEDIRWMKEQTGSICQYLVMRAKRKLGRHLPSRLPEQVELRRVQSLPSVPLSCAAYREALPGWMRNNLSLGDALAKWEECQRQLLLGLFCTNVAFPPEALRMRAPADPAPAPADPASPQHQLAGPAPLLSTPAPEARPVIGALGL
UniProt Q92889: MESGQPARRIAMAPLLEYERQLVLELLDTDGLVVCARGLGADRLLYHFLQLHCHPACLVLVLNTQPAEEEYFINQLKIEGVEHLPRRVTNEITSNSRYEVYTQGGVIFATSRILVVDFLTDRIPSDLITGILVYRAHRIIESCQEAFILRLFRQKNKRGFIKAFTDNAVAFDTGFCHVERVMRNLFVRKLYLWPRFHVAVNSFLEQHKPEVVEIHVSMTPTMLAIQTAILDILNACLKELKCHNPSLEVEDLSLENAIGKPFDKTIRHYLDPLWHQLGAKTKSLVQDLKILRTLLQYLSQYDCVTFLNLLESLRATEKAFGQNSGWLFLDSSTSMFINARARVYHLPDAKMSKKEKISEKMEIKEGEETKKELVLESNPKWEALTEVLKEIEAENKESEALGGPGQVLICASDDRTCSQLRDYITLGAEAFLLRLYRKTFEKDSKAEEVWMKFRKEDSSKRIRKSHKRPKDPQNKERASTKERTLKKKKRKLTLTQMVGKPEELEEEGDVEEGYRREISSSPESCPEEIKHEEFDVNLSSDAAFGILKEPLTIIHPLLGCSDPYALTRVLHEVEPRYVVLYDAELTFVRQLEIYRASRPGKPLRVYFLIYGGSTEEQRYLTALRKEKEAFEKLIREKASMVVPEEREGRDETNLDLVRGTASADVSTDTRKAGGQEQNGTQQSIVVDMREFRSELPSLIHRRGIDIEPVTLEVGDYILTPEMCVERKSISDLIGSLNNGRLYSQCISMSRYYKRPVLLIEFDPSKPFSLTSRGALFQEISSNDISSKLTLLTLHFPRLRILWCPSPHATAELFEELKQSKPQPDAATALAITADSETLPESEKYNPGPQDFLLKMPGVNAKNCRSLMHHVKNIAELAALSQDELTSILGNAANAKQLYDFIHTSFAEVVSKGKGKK
UniProt Q92845: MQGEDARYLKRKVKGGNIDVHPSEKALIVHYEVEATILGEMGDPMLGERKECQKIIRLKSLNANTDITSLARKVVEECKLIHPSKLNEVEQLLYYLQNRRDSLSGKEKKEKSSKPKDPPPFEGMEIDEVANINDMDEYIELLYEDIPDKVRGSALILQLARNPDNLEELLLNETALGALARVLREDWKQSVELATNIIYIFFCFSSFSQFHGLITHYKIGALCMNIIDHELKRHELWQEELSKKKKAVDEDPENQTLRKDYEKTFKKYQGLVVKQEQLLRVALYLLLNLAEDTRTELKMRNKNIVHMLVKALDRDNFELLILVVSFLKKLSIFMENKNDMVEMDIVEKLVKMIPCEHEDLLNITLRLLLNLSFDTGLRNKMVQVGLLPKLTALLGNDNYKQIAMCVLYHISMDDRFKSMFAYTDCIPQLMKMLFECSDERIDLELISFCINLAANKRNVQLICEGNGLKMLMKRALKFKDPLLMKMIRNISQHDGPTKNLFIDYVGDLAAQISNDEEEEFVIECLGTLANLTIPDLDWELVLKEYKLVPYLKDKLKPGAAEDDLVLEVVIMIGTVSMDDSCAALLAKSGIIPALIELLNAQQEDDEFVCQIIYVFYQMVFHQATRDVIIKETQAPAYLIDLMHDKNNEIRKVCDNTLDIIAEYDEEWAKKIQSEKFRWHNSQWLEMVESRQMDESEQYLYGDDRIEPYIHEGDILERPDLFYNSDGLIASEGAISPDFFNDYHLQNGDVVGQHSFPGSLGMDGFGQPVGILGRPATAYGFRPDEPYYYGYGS
UniProt Q96A73: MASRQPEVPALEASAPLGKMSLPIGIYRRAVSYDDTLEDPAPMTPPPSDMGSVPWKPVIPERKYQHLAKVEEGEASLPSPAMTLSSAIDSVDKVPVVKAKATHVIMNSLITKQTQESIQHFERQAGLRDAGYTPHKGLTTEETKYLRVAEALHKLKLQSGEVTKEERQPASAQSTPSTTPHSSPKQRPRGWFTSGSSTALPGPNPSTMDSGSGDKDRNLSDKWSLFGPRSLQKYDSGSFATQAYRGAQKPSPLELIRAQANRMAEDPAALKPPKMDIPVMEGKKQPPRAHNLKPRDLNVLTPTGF
UniProt Q92667: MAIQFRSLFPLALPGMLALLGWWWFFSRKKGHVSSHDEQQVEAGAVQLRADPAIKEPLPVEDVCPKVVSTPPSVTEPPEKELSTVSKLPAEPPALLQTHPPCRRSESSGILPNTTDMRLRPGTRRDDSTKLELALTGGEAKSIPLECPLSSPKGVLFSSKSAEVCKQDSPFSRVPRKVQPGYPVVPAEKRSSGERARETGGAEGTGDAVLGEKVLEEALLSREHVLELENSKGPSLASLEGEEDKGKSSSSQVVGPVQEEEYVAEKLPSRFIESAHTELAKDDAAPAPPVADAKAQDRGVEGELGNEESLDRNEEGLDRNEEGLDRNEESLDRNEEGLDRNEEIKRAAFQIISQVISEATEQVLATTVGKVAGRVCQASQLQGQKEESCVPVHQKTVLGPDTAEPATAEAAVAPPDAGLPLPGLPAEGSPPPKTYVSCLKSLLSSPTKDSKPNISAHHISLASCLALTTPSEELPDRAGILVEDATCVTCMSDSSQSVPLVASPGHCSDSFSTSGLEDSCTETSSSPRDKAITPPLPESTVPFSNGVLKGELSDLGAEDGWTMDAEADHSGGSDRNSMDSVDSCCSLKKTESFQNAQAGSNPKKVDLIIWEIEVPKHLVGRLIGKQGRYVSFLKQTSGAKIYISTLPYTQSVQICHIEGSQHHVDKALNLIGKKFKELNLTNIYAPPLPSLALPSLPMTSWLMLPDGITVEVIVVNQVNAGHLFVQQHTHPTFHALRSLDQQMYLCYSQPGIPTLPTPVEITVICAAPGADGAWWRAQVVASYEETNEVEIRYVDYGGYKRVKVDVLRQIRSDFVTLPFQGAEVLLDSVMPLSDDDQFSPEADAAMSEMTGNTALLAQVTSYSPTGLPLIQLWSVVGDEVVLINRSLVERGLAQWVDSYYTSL

Compound: CCc1cnccc1C(=O)Nc1cc2c(cc1F)NC(=O)CC2
Test: melting temperature shift (DMSO Tm minus MBE1-treated Tm) in cellular thermal proteome profiling; higher = less thermal stabilization by MBE1 (negative = stabilized by MBE1)
Conditions: A375

IFT81 (UniProt Q8WYA0)
melting temperature shift (MBE1 concentration: 100 nM): -0.358 °C | melting temperature shift (MBE1 concentration: 1 uM): -0.259 °C

USP9X (UniProt Q93008)
melting temperature shift (MBE1 concentration: 100 nM): 0.794 °C | melting temperature shift (MBE1 concentration: 1 uM): 0.0794 °C

AIDA (UniProt Q96BJ3)
melting temperature shift (MBE1 concentration: 100 nM): 1.33 °C | melting temperature shift (MBE1 concentration: 1 uM): 0.275 °C

GTPBP3 (UniProt Q969Y2)
melting temperature shift (MBE1 concentration: 100 nM): -1.33 °C | melting temperature shift (MBE1 concentration: 1 uM): 1.11 °C

UniProt Q96DP5
melting temperature shift (MBE1 concentration: 100 nM): 0.146 °C | melting temperature shift (MBE1 concentration: 1 uM): 0.0282 °C

GOLGA1 (UniProt Q92805)
melting temperature shift (MBE1 concentration: 100 nM): -1.11 °C | melting temperature shift (MBE1 concentration: 1 uM): -0.856 °C

RTN4IP1 (UniProt Q8WWV3)
melting temperature shift (MBE1 concentration: 100 nM): 1.4 °C | melting temperature shift (MBE1 concentration: 1 uM): 0.147 °C

RABGGTA (UniProt Q92696)
melting temperature shift (MBE1 concentration: 100 nM): -0.101 °C | melting temperature shift (MBE1 concentration: 1 uM): 0.282 °C

LENG9 (UniProt Q96B70)
melting temperature shift (MBE1 concentration: 100 nM): -1.03 °C | melting temperature shift (MBE1 concentration: 1 uM): -0.102 °C

UniProt Q8WWX9
melting temperature shift (MBE1 concentration: 100 nM): 0.127 °C | melting temperature shift (MBE1 concentration: 1 uM): 0.452 °C

USP13 (UniProt Q92995)
melting temperature shift (MBE1 concentration: 100 nM): 0.794 °C | melting temperature shift (MBE1 concentration: 1 uM): 1.67 °C

MRPL38 (UniProt Q96DV4)
melting temperature shift (MBE1 concentration: 100 nM): 0.116 °C | melting temperature shift (MBE1 concentration: 1 uM): 0.957 °C

UniProt Q92610
melting temperature shift (MBE1 concentration: 100 nM): -1.25 °C | melting temperature shift (MBE1 concentration: 1 uM): -0.0946 °C

PHF3 (UniProt Q92576)
melting temperature shift (MBE1 concentration: 100 nM): -1.51 °C | melting temperature shift (MBE1 concentration: 1 uM): 0.0733 °C

AP3S1 (UniProt Q92572)
melting temperature shift (MBE1 concentration: 100 nM): 0.47 °C | melting temperature shift (MBE1 concentration: 1 uM): 0.513 °C

PTP4A1 (UniProt Q93096)
melting temperature shift (MBE1 concentration: 100 nM): -1.8 °C | melting temperature shift (MBE1 concentration: 1 uM): -0.679 °C

LZIC (UniProt Q8WZA0)
melting temperature shift (MBE1 concentration: 100 nM): -3.88 °C | melting temperature shift (MBE1 concentration: 1 uM): -0.91 °C

UniProt Q8WYH8
melting temperature shift (MBE1 concentration: 100 nM): 1.02 °C | melting temperature shift (MBE1 concentration: 1 uM): -0.122 °C

SYAP1 (UniProt Q96A49)
melting temperature shift (MBE1 concentration: 100 nM): -0.61 °C | melting temperature shift (MBE1 concentration: 1 uM): 0.161 °C

PSMG2 (UniProt Q969U7)
melting temperature shift (MBE1 concentration: 100 nM): -0.195 °C | melting temperature shift (MBE1 concentration: 1 uM): -1.76 °C

UBXN4 (UniProt Q92575)
melting temperature shift (MBE1 concentration: 100 nM): -0.0122 °C | melting temperature shift (MBE1 concentration: 1 uM): 0.623 °C

RSPRY1 (UniProt Q96DX4)
melting temperature shift (MBE1 concentration: 100 nM): 0.423 °C | melting temperature shift (MBE1 concentration: 1 uM): 1.46 °C

LPP (UniProt Q93052)
melting temperature shift (MBE1 concentration: 100 nM): -1.85 °C | melting temperature shift (MBE1 concentration: 1 uM): -0.127 °C

UniProt Q96D05
melting temperature shift (MBE1 concentration: 100 nM): -4.03 °C | melting temperature shift (MBE1 concentration: 1 uM): -5.33 °C

UniProt Q96AB6
melting temperature shift (MBE1 concentration: 100 nM): -0.11 °C | melting temperature shift (MBE1 concentration: 1 uM): 0.232 °C

CLP1 (UniProt Q92989)
melting temperature shift (MBE1 concentration: 100 nM): 0.501 °C | melting temperature shift (MBE1 concentration: 1 uM): 0.409 °C

SH3KBP1 (UniProt Q96B97)
melting temperature shift (MBE1 concentration: 100 nM): -2.18 °C | melting temperature shift (MBE1 concentration: 1 uM): 0.469 °C

UniProt Q8WY54
melting temperature shift (MBE1 concentration: 100 nM): -0.134 °C | melting temperature shift (MBE1 concentration: 1 uM): 0.758 °C

MADD (UniProt Q8WXG6)
melting temperature shift (MBE1 concentration: 100 nM): -0.0659 °C | melting temperature shift (MBE1 concentration: 1 uM): -0.00941 °C

PTER (UniProt Q96BW5)
melting temperature shift (MBE1 concentration: 100 nM): -2.41 °C | melting temperature shift (MBE1 concentration: 1 uM): -2.2 °C

OSTF1 (UniProt Q92882)
melting temperature shift (MBE1 concentration: 100 nM): 0.629 °C | melting temperature shift (MBE1 concentration: 1 uM): 0.128 °C

C12ORF43 (UniProt Q96C57)
melting temperature shift (MBE1 concentration: 100 nM): -3.49 °C | melting temperature shift (MBE1 concentration: 1 uM): -1.17 °C

OVCA2 (UniProt Q8WZ82)
melting temperature shift (MBE1 concentration: 100 nM): -0.894 °C | melting temperature shift (MBE1 concentration: 1 uM): -0.89 °C

UniProt Q96D31
melting temperature shift (MBE1 concentration: 100 nM): -5.2 °C | melting temperature shift (MBE1 concentration: 1 uM): -1.3 °C

UniProt Q96AD5
melting temperature shift (MBE1 concentration: 100 nM): 1.77 °C | melting temperature shift (MBE1 concentration: 1 uM): 1.12 °C

ERCC4 (UniProt Q92889)
melting temperature shift (MBE1 concentration: 100 nM): -0.936 °C | melting temperature shift (MBE1 concentration: 1 uM): -1.3 °C

PMM1 (UniProt Q92871)
melting temperature shift (MBE1 concentration: 100 nM): 0.898 °C | melting temperature shift (MBE1 concentration: 1 uM): 0.647 °C

CCDC47 (UniProt Q96A33)
melting temperature shift (MBE1 concentration: 100 nM): -0.503 °C | melting temperature shift (MBE1 concentration: 1 uM): 0.201 °C

GCC1 (UniProt Q96CN9)
melting temperature shift (MBE1 concentration: 100 nM): -1.43 °C | melting temperature shift (MBE1 concentration: 1 uM): -0.621 °C

OTULIN (UniProt Q96BN8)
melting temperature shift (MBE1 concentration: 100 nM): 0.276 °C | melting temperature shift (MBE1 concentration: 1 uM): -0.358 °C

TAMM41 (UniProt Q96BW9)
melting temperature shift (MBE1 concentration: 100 nM): 0.0733 °C | melting temperature shift (MBE1 concentration: 1 uM): 0.0183 °C

IRGQ (UniProt Q8WZA9)
melting temperature shift (MBE1 concentration: 100 nM): 0.232 °C | melting temperature shift (MBE1 concentration: 1 uM): -0.0244 °C

IGSF8 (UniProt Q969P0)
melting temperature shift (MBE1 concentration: 100 nM): -2.4 °C | melting temperature shift (MBE1 concentration: 1 uM): -2.94 °C

UniProt Q8WYB5
melting temperature shift (MBE1 concentration: 100 nM): 0.49 °C | melting temperature shift (MBE1 concentration: 1 uM): 3.58 °C

UniProt Q92823
melting temperature shift (MBE1 concentration: 100 nM): -2.33 °C | melting temperature shift (MBE1 concentration: 1 uM): -1.97 °C

TSR2 (UniProt Q969E8)
melting temperature shift (MBE1 concentration: 100 nM): 0.409 °C | melting temperature shift (MBE1 concentration: 1 uM): 0.702 °C

UniProt Q96BZ9
melting temperature shift (MBE1 concentration: 100 nM): 0.531 °C | melting temperature shift (MBE1 concentration: 1 uM): 0.55 °C

IP6K1 (UniProt Q92551)
melting temperature shift (MBE1 concentration: 100 nM): -0.992 °C | melting temperature shift (MBE1 concentration: 1 uM): 0.287 °C

UniProt Q92845
melting temperature shift (MBE1 concentration: 100 nM): -0.0753 °C | melting temperature shift (MBE1 concentration: 1 uM): 0.0047 °C

DDB2 (UniProt Q92466)
melting temperature shift (MBE1 concentration: 100 nM): -1.48 °C | melting temperature shift (MBE1 concentration: 1 uM): -1.67 °C

TUBGCP3 (UniProt Q96CW5)
melting temperature shift (MBE1 concentration: 100 nM): 0.891 °C | melting temperature shift (MBE1 concentration: 1 uM): 0.507 °C

GBF1 (UniProt Q92538)
melting temperature shift (MBE1 concentration: 100 nM): 0.586 °C | melting temperature shift (MBE1 concentration: 1 uM): 0.00611 °C

PIGK (UniProt Q92643)
melting temperature shift (MBE1 concentration: 100 nM): -0.577 °C | melting temperature shift (MBE1 concentration: 1 uM): 0.357 °C

PRPF31 (UniProt Q8WWY3)
melting temperature shift (MBE1 concentration: 100 nM): -0.34 °C | melting temperature shift (MBE1 concentration: 1 uM): -0.372 °C

ATXN2L (UniProt Q8WWM7)
melting temperature shift (MBE1 concentration: 100 nM): -0.51 °C | melting temperature shift (MBE1 concentration: 1 uM): -0.419 °C

UniProt Q96A73
melting temperature shift (MBE1 concentration: 100 nM): -2.33 °C | melting temperature shift (MBE1 concentration: 1 uM): 0.575 °C

GLMN (UniProt Q92990)
melting temperature shift (MBE1 concentration: 100 nM): 0.232 °C | melting temperature shift (MBE1 concentration: 1 uM): 0.36 °C

LRRC59 (UniProt Q96AG4)
melting temperature shift (MBE1 concentration: 100 nM): -2.83 °C | melting temperature shift (MBE1 concentration: 1 uM): 0.769 °C

ARPC1A (UniProt Q92747)
melting temperature shift (MBE1 concentration: 100 nM): -0.71 °C | melting temperature shift (MBE1 concentration: 1 uM): -0.253 °C

UniProt Q93073
melting temperature shift (MBE1 concentration: 100 nM): 1.43 °C | melting temperature shift (MBE1 concentration: 1 uM): -0.256 °C

SPDL1 (UniProt Q96EA4)
melting temperature shift (MBE1 concentration: 100 nM): -0.218 °C | melting temperature shift (MBE1 concentration: 1 uM): -0.442 °C

UniProt Q969T3
melting temperature shift (MBE1 concentration: 100 nM): -0.999 °C | melting temperature shift (MBE1 concentration: 1 uM): -0.589 °C

HDAC2 (UniProt Q92769)
melting temperature shift (MBE1 concentration: 100 nM): -3.14 °C | melting temperature shift (MBE1 concentration: 1 uM): -4.58 °C

AKAP1 (UniProt Q92667)
melting temperature shift (MBE1 concentration: 100 nM): 0.58 °C | melting temperature shift (MBE1 concentration: 1 uM): 0.0366 °C

UniProt Q93084
melting temperature shift (MBE1 concentration: 100 nM): -0.758 °C | melting temperature shift (MBE1 concentration: 1 uM): 0.302 °C

ATP6V0A1 (UniProt Q93050)
melting temperature shift (MBE1 concentration: 100 nM): -2.07 °C | melting temperature shift (MBE1 concentration: 1 uM): -2.17 °C

NDRG1 (UniProt Q92597)
melting temperature shift (MBE1 concentration: 100 nM): -0.248 °C | melting temperature shift (MBE1 concentration: 1 uM): 0.349 °C

H1FX (UniProt Q92522)
melting temperature shift (MBE1 concentration: 100 nM): -0.759 °C | melting temperature shift (MBE1 concentration: 1 uM): -0.319 °C

BBX (UniProt Q8WY36)
melting temperature shift (MBE1 concentration: 100 nM): 0.288 °C | melting temperature shift (MBE1 concentration: 1 uM): -0.814 °C

ARHGEF1 (UniProt Q92888)
melting temperature shift (MBE1 concentration: 100 nM): -0.635 °C | melting temperature shift (MBE1 concentration: 1 uM): -0.574 °C
